Measured values as given in US20140329289.
For some assays here: Weaker means in comparison with the reference protein, sequence or condition of that experiment. For some assays here: For at least one entry, the source does not settle the construct or the ends of the probe. For some assays here: Where cells or extracts were used, other partners may take part.

Protein sequences, listed by entry. Tags and fused reporters are not part of them. Residues count along the entry.
UniProt P08603, 19-1231: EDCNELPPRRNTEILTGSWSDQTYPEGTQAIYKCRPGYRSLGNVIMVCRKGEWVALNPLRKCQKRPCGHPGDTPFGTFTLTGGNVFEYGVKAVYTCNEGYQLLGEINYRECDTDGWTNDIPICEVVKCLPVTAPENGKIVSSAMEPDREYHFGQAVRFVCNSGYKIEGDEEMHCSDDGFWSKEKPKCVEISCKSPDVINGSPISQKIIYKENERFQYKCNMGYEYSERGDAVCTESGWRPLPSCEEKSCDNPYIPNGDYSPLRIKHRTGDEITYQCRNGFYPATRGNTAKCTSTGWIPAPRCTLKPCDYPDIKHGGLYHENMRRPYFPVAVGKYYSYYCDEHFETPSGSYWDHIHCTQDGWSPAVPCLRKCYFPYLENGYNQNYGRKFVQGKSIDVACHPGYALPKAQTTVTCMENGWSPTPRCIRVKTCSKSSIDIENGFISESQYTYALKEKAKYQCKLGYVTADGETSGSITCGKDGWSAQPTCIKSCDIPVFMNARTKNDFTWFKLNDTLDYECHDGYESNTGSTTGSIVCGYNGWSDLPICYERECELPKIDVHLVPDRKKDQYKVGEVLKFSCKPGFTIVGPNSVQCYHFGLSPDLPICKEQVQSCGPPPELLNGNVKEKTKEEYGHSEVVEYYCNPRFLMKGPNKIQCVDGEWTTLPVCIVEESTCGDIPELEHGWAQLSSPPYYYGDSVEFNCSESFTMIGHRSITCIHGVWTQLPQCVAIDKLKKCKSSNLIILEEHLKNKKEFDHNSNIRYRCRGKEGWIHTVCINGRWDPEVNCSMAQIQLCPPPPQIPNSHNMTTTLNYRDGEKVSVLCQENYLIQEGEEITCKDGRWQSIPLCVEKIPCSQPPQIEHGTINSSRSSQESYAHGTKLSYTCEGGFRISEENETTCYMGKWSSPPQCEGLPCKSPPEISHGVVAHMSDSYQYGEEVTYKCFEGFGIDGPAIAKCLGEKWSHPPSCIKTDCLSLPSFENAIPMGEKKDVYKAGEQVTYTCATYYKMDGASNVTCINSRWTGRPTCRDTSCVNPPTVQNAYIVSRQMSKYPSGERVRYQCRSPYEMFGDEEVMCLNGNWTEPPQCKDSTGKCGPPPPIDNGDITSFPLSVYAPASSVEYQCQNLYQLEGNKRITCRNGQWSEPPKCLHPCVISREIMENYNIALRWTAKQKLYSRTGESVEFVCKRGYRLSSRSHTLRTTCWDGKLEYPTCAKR

Experiments:
[1] = target: Factor H (complement factor H), plasma (Homo sapiens) (UniProt P08603); test: SPR; conditions: lowest of 5 truncations, affinity lower than MaptH1.1 parent; 50 mM NaCl, 50 mM MgCl2, pH 7.5; purified native protein; single-stranded DNA; variant of …
[2] = target: Factor H, recombinant (Homo sapiens) (UniProt P08603); test: pull-down; conditions: affinity chromatography from culture supernatant; single pure band eluted with EDTA (2% of A254); 10 mM MgCl2, 50 mM NaCl, pH 7.5; protein in an extract; protein details: culture supernatant of recombinant producer cells; label: biotin; single-stranded DNA

Sequence | binding result [1] | binding result [2]
CACGGGTCAGGCGGTTATACGGTG [MaptH1.1 N22-45] | binds more weakly | 
GGGTCAATGCCAGGTCTCGGGCACGGGTCAGGCGGTTATACGGTGCCCATTGTTCTTTATCGGCTCGCAAGCAGTC [MaptH1.1] |  | binds
